Results are given in words; binding and its absence hold for the method and conditions named. Binding seen in cells or lysates may run through a third protein. Some entries that bind do so weakly or less than the wild type.
Molecular target: β-catenin, endogenous (human (endogenous in HCT-15, COLO205, HEK293T)) (UniProt P35222)
Experiment: co-IP

By UniProt entry, the sequences of proteins in these tests, tags left out.
UniProt P35222: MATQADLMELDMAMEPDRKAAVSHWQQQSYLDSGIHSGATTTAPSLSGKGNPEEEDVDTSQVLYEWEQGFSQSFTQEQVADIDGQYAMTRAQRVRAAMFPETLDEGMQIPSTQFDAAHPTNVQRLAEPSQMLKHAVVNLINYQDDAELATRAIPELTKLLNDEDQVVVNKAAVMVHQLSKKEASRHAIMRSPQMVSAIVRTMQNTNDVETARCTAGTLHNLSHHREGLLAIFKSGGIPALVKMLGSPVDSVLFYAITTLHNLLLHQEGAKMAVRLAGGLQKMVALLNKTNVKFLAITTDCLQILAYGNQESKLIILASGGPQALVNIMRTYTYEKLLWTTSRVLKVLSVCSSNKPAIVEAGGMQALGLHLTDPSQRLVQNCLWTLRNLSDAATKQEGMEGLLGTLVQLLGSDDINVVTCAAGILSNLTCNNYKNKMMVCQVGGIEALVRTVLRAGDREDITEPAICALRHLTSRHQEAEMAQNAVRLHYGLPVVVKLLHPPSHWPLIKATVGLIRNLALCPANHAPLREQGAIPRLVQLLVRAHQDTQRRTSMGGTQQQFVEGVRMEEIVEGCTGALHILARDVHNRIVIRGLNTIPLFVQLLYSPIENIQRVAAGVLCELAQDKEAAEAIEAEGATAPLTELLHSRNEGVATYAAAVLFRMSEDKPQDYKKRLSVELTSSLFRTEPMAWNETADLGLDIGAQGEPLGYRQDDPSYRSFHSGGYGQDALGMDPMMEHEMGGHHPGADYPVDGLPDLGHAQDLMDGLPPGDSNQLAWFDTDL
UniProt O15169: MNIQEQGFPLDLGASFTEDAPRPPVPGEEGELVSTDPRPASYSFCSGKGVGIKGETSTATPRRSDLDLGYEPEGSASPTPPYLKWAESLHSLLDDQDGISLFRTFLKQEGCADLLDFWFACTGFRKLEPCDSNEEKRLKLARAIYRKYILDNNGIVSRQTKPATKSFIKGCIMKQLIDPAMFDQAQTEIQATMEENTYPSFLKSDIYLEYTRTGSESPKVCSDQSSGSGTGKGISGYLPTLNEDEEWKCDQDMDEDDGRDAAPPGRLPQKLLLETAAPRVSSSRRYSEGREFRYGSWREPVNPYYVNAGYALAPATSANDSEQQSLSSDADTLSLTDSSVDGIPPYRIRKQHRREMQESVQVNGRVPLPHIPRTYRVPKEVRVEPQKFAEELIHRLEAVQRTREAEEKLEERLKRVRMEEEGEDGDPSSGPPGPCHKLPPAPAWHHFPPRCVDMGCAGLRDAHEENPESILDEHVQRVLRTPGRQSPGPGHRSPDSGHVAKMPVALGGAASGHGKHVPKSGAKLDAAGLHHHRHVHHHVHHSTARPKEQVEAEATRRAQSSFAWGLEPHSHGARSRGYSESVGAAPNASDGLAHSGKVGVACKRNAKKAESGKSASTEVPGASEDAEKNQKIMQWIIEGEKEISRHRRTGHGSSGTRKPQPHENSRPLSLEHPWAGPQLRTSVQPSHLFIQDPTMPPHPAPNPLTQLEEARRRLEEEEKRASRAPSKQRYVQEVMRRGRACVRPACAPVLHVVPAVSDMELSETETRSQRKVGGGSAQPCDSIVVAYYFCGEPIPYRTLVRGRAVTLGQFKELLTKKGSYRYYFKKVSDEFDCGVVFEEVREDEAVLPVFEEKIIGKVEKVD

AXIN1, endogenous (HEK293T) (from UniProt O15169 1-862)
binding: binds
